Paper PMC7909667
These are yes or no findings as the source states them, for the method shown. In cells and extracts the contact can be indirect. Some results given as binding are weak or reduced against the parent protein; the word gives no strength. For part of these data: Tags and fused reporters may be left off the sequences shown.

Chains of the proteins cited; added tags and fusions are not shown. Residues count along the entry.
UniProt E9Q414, residues 28-4505: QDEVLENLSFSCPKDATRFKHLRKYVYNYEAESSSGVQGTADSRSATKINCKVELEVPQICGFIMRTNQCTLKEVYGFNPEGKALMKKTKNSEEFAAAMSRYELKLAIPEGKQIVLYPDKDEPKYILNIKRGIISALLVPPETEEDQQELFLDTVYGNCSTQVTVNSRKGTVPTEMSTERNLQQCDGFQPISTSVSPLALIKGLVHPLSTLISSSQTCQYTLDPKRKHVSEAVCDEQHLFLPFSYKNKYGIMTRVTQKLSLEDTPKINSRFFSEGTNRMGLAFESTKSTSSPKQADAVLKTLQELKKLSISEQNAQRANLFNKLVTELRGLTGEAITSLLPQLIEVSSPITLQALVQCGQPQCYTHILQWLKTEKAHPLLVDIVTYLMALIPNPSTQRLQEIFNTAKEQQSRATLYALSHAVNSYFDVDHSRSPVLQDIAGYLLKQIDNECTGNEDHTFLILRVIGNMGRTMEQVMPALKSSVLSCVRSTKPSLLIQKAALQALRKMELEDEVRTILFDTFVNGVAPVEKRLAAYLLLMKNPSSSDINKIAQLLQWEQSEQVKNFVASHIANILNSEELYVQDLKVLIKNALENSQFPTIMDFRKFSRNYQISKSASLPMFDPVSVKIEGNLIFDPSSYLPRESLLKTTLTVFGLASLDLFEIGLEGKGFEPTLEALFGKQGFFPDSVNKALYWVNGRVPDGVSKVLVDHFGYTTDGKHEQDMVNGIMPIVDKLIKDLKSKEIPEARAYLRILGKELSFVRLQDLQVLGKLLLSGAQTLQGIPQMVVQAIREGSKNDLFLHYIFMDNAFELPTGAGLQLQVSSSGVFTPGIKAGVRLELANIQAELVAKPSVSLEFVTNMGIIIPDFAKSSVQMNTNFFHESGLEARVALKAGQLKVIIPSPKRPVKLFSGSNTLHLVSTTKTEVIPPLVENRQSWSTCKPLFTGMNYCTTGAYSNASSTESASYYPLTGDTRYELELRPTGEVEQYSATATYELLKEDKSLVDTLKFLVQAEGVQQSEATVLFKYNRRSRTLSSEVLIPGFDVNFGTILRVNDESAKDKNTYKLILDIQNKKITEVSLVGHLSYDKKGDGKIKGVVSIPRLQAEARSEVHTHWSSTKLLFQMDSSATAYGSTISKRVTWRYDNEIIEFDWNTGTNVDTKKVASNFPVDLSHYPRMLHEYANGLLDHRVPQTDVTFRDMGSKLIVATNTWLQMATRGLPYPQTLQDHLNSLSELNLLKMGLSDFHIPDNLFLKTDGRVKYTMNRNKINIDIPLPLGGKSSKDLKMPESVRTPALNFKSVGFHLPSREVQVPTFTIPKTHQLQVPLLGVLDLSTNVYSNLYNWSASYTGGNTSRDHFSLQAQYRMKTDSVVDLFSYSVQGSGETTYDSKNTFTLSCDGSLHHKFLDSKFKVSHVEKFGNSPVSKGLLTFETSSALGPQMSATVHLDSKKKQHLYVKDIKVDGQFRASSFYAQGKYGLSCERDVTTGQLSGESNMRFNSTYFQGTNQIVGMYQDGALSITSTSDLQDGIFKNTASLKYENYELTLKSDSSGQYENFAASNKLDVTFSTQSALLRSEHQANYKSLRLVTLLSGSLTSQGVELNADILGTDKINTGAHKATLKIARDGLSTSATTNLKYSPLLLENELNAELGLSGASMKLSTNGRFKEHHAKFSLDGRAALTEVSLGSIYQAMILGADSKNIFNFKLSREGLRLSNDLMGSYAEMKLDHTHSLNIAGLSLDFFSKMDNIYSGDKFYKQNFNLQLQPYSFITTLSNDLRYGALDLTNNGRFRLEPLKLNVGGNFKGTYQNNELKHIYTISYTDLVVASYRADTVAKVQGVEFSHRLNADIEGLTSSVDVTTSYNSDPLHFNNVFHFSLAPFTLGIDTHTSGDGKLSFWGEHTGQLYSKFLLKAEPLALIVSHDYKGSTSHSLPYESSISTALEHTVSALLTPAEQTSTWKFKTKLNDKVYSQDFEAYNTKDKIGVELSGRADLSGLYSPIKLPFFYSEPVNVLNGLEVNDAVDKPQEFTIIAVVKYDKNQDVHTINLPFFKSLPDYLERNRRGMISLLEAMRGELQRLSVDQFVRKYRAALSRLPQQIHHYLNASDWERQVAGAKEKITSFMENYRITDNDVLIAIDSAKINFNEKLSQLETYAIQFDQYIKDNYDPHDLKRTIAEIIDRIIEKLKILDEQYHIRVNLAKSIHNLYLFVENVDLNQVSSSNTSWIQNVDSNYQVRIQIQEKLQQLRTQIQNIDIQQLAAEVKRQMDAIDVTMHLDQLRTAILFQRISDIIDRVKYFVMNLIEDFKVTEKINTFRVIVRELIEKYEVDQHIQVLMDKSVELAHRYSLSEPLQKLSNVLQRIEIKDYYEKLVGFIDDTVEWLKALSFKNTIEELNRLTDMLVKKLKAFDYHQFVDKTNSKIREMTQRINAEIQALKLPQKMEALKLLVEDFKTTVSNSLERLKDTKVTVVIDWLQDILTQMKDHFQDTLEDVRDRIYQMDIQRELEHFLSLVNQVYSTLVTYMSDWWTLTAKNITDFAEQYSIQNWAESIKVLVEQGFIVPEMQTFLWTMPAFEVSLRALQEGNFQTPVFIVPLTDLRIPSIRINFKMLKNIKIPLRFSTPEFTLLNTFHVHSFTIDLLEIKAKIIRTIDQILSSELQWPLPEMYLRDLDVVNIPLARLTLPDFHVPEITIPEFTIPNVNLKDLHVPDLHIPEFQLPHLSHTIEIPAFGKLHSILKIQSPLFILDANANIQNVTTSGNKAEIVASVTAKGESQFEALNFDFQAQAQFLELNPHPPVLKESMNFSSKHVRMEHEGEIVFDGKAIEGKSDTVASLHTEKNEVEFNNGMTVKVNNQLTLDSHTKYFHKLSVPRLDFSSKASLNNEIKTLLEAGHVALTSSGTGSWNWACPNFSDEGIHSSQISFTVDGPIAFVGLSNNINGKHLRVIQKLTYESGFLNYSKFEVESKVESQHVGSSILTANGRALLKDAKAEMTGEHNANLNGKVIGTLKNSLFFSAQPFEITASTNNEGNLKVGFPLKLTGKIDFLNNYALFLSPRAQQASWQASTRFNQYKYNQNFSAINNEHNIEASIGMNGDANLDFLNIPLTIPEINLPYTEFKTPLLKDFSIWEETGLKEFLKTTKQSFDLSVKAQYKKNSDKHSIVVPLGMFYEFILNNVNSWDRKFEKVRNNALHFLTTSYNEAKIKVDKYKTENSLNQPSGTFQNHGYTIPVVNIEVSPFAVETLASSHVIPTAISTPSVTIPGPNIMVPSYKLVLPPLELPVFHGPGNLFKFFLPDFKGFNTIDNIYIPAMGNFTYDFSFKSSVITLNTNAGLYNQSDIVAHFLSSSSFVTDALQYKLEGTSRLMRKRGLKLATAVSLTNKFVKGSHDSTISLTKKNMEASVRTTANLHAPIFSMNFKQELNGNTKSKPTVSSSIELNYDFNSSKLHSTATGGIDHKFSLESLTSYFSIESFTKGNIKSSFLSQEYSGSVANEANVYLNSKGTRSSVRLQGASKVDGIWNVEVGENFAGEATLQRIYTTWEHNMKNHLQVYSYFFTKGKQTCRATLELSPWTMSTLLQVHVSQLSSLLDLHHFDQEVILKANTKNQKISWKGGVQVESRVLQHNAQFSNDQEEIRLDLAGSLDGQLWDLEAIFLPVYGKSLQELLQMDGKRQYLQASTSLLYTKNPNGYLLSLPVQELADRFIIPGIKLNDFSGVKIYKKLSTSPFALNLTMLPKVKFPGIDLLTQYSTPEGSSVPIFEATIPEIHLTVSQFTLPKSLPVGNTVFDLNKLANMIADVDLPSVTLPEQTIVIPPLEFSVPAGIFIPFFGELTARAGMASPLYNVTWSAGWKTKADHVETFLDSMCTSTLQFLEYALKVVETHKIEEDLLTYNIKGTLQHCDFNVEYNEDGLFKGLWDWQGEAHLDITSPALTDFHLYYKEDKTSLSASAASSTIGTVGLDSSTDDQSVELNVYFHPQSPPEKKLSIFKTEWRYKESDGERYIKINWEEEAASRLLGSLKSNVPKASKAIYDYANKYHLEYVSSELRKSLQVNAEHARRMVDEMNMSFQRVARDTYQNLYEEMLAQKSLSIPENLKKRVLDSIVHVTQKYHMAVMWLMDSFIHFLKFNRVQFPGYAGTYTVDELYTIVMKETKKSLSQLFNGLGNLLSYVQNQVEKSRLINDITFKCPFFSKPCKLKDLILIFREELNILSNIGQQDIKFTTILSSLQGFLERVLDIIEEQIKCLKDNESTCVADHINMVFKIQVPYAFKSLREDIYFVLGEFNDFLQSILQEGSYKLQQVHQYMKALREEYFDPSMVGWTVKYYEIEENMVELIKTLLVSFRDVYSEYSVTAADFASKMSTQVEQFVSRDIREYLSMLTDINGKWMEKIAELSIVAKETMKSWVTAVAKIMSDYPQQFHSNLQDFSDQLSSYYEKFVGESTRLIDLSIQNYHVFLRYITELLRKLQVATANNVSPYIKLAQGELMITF
UniProt Q9UKV5: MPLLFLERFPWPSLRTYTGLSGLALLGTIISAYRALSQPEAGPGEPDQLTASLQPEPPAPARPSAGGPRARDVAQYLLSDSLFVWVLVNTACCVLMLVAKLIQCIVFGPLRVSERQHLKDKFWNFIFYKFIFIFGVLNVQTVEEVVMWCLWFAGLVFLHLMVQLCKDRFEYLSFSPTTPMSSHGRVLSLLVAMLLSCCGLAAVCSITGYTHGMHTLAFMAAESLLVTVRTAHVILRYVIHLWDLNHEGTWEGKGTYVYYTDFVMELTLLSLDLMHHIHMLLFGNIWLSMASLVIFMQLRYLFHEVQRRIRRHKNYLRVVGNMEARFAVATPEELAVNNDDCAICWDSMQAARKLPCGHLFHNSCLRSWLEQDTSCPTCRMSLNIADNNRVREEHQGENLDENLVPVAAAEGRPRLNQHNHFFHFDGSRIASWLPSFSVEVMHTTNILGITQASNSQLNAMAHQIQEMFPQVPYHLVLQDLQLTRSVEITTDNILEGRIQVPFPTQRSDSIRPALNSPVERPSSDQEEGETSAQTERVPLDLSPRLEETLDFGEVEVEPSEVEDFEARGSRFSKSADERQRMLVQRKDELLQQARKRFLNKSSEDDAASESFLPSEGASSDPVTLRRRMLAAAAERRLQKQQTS
UniProt Q9R049: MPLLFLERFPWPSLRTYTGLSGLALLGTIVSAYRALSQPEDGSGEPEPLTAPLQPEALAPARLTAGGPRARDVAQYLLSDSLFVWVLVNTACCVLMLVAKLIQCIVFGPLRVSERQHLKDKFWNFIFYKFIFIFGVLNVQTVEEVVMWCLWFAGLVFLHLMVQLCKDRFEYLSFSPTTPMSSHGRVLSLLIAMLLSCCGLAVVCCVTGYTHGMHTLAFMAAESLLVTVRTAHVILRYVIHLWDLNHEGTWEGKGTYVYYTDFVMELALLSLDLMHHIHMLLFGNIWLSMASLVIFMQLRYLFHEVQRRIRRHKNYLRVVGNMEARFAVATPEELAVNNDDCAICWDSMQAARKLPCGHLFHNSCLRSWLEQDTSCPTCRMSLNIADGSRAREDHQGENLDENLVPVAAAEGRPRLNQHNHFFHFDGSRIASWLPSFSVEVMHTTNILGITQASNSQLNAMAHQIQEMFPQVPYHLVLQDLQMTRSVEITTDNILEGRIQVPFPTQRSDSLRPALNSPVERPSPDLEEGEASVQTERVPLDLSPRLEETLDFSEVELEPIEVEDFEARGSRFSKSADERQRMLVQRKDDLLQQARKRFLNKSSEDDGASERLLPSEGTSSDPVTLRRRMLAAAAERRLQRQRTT
UniProt P20029, residues 20-655: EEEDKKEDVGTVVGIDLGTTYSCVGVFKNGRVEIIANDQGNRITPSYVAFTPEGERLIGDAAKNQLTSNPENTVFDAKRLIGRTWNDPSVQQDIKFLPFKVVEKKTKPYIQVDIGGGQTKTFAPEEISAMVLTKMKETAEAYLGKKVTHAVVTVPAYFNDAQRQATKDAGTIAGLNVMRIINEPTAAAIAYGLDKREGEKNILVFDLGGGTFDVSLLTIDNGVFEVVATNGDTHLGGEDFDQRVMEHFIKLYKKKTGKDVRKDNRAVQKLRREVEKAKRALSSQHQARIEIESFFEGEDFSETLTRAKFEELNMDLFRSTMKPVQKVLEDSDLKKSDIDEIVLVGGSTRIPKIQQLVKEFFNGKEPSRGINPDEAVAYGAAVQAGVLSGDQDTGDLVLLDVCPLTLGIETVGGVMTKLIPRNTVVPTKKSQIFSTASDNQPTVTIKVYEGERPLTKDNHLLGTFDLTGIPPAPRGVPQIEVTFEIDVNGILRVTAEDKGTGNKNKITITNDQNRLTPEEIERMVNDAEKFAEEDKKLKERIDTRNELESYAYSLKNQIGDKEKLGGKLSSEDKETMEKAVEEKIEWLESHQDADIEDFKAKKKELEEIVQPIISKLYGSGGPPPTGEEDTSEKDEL

Legend:
[1] = molecular target: T1, liver-specific zona pellucida domain-containing protein (LZP), ectopic, in HepG2 cells (UniProt Q8WWZ8); assay: co-IP; reciprocal co-immunoprecipitation with indicated antibodies in HepG2 cells ectopically expressing AMFR and LZP
T1 sequence: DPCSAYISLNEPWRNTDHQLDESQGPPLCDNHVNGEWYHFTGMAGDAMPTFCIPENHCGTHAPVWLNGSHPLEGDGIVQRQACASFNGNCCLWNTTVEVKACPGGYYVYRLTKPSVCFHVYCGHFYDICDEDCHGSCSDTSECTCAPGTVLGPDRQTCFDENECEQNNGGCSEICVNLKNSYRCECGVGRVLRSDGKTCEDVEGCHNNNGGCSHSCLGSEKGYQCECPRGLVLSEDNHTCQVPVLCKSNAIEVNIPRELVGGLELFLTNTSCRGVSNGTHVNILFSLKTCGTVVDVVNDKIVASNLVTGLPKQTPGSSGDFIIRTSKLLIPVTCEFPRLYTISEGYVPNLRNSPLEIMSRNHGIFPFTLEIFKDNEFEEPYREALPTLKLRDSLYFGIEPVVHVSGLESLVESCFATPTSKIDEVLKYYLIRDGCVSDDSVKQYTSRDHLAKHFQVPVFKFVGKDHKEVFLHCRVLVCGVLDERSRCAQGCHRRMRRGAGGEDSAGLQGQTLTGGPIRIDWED

[2] = molecular target: apolipoprotein B (apoB), endogenous, mouse hepatocytes or liver (mouse (endogenous in mouse hepatocytes)) (UniProt E9Q414); assay: co-IP; apoB immunoprecipitated, AMFR blotted; liver or hepatocytes of WT and Lzp-/- mice
[3] = molecular target: T2, liver-specific zona pellucida domain-containing protein (LZP), endogenous, mouse hepatocytes (mouse (endogenous in mouse hepatocytes)) (UniProt Q8R4V5); assay: co-IP; co-immunoprecipitation of LZP with apoB, MTTP or BIP in hepatocytes isolated from WT mice
T2 sequence: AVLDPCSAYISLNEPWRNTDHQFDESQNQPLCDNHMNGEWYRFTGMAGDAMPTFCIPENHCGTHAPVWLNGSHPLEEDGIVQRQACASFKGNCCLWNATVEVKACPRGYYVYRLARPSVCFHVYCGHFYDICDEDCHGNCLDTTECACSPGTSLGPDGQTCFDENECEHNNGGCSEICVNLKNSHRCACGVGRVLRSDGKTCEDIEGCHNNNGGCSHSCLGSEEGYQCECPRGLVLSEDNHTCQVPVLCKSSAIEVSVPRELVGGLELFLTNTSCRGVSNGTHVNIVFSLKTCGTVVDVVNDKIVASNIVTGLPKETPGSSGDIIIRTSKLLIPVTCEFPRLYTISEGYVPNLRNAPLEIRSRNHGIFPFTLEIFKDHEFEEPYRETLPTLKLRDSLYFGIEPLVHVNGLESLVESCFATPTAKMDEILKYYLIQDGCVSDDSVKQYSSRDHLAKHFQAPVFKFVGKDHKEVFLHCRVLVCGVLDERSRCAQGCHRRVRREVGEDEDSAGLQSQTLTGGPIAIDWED

[4] = molecular target: T1, liver-specific zona pellucida domain-containing protein (LZP), ectopic, in HepG2 cells; assay: co-IP; reciprocal co-immunoprecipitation of ectopic LZP and apoB in mouse hepatocytes and in HepG2 cells overexpressing LZP
[5] = molecular target: T3, liver-specific zona pellucida domain-containing protein (LZP), ectopic, in mouse hepatocytes (mouse) (UniProt Q8R4V5); assay: as above
T3 sequence: T2 sequence

AMFR (E3 ligase gp78), ectopic, in HepG2 cells (from UniProt Q9UKV5 1-643) (enzyme)
binding [1]: binds

AMFR (E3 ligase gp78), endogenous, mouse liver or hepatocytes (from UniProt Q9R049 1-643) (enzyme)
binding [2]: binds

BIP, ER-resident luminal chaperone, mouse hepatocytes (from UniProt P20029 20-655)
binding [3]: binds

apolipoprotein B (apoB), endogenous, HepG2 cells (from UniProt P04114 28-4563)
binding [4]: binds

apolipoprotein B (apoB), endogenous, mouse hepatocytes or liver (from UniProt E9Q414 28-4505)
binding [5]: binds | binding [3]: binds
